Screening data, single-dose tests

Mtb cholesterol medium: 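Phenotypic screen: M. tuberculosis growth, cholesterol and DPPC medium, 4 days; the read-out is not stated. Compounds at 50 µM. The record gives no direction; compounds that gave an IC50 in retests scored well above the rest, so higher reads as more growth inhibition. Of about 69,000 compounds tested this way, about 370 (0.54%) reached 50% or more in at least one test.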
Mtb glucose medium: 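Whole-cell growth test on Mycobacterium tuberculosis, read after 3 days in glucose-containing 7H9 medium; the read-out is not stated. Concentration: 50 µM. Higher reads as more growth inhibition (inferred: compounds with an IC50 in retests scored well above the rest). Of about 69,000 compounds tested this way, about 760 (1.1%) reached 50% or more in at least one test.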

Values are the deposited “Percent Effect”, in %.
The record does not define 0% and 100%; most values in the screen are far below 50% and negative numbers occur (in some assays of this library far below -100).
The compounds are a random part of those screened.
Two or more numbers in one place are separate tests of the same structure; such repeats can differ widely.

| # | Compound | Mtb cholesterol medium | Mtb glucose medium |
|---|---|---|---|
| 1 | `Cc1cc(C(=O)NCc2ccc(F)cc2)c2c(C3CCCN3)noc2n1` (stereo not shown) | -15.41 | 16 |
| 2 | `COC(=O)N1CCCC(NC(=O)NCc2ccc(C)nc2)C1` (stereo not shown) | -8.134 | 1.686 |
| 3 | `CN(Cc1nnc(C2CC2)n1C)C1CCN(Cc2ccccc2F)C1` (stereo not shown) | -15.85 | -13.12 |
| 4 | `CN(CCOc1ccc(F)cc1)S(=O)(=O)N1CCOCC1` | 0.9549 | -6.711 and -2.848 |
| 5 | `O=C(Nc1ccc(-n2cccn2)cc1)N1CCOCC(O)C1` (stereo not shown) | -10.97 | -1.805 |
| 6 | `O=C(O)C(F)(F)F.[H][C@@]12CO[C@H](CNS(C)(=O)=O)[C@]1([H])CCN(Cc1ccsc1)C2` | 5.415 | -3.517 |
| 7 | `CCc1ncc(CN(C)C2CCN(C(C)C)CC2)cn1.O=C(O)CC(O)(CC(=O)O)C(=O)O` | -3.957 | -8.711 |
| 8 | `Cc1n[nH]c(C)c1NC(=O)CN1CCN(c2nccs2)C(C)C1` (stereo not shown) | 17.04 | -4.86 and 40.66 |
| 9 | `CN(C)C(=O)c1cccc(NC(=O)c2cnn(C)c2)c1` | -9.971 and -5.375 | -10.64 |
| 10 | `CCN(CC)C(=O)C1CCC2(CCNCC2)O1.Cl` (stereo not shown) | 2.055 | -3.161 |
| 11 | `CN(Cc1nnc2n1CCC2)S(=O)(=O)c1cc(Br)ccc1Br` | 7.552 | 2.003 |
| 12 | `Cc1c(Cl)c(C(=O)NC(C)CN2CCOCC2)nn1C` (stereo not shown) | -2.527 | -12.94 |
| 13 | `c1ccc(Cc2noc(CN3CCc4c(ncn4C4CC4)C3)n2)cc1` | -20.52 | -20.9 |
| 14 | `Cn1cc(N2CC3(CCN(CC4CCC4)CC3)OCC2=O)cn1.O=C(O)C(F)(F)F` | 5.216 | 21.58 |
| 15 | `[H][C@]12CC[C@@]3(N=C(C)N(C)C3=O)[C@@]1([H])CN(S(=O)(=O)CC(C)C)C2` | -22.01 | -8.786 |
| 16 | `Cc1ccc(-n2cccn2)cc1S(=O)(=O)N1C[C@H](C2CC2)[C@@H](N)C1` | 5.723 | 18.49 |
| 17 | `COCCN1CCCC(O)(CN2CCN(c3cc(C)ccn3)CC2)C1=O` (stereo not shown) | -24.9 | -16.03 |
| 18 | `Cc1nn(C)c(C)c1CNCc1ccnc(N2CCOCC2)c1` | -15.55 | -28.29 |
| 19 | `O=C(Nc1ccc(F)cc1)C1CNCCN1C(=O)CSc1ccncc1` (stereo not shown) | -22.34 | -28.78 and -5.58 |
| 20 | `COc1ccnc(N2CCN(C(=O)Cc3ccc(C)s3)CC2)n1` | -16.44 | 1.712 |
| 21 | `Cc1nc(CNC(=O)CC2C(=O)NCCN2Cc2ccccc2C)n[nH]1` (stereo not shown) | -3.412 and -7.94 | -26.42 |
| 22 | `COc1ccc(-c2cc(C3CCNCC3)ccn2)cc1.Cl` | 5.309 | 23.78 |
| 23 | `CN1CCC(Cc2nc(-c3cnccn3)n(C3CCS(=O)(=O)C3)n2)CC1` (stereo not shown) | -8.067 and -15.68 | -24.65 |
| 24 | `O=C(O)C(F)(F)F.[H][C@@]12CCN(C(=O)c3cscn3)[C@@]1([H])CCN2CC1CCOCC1` | -7.251 | -21.85 |
| 25 | `Cc1nc(C2CCCN2CCCc2nc3ccccc3o2)no1` (stereo not shown) | -36.6 | -11.43 |
| 26 | `O=C(O)C(F)(F)F.O=C(O)C(F)(F)F.[H][C@@]12C[C@@H](Oc3cccc(F)c3)CN1CCN(Cc1nccn1C)C2` | -12.94 | -6.58 and -12.33 |
| 27 | `CC(C)(C)n1ncc2c1CCCC2NCc1cccc2c1OCO2` (stereo not shown) | 5.781 | -1.539 |
| 28 | `COc1c(C2CCCN2C(=O)c2cnccn2)c(C)nn1C` (stereo not shown) | -17.85 | 15.42 |
| 29 | `Cc1cc(C(=O)N2CCOC(c3nc(C(C)C)n[nH]3)C2)no1` (stereo not shown) | -4.663 | 11.31 |
| 30 | `CCN1Cc2ccccc2N(C(=O)C2CCC2)CCC1=O` | -1.095 | -3.821 |
| 31 | `COc1cccc2c1OCC(CNC(=O)CCn1cnnn1)C2` (stereo not shown) | -11.51 and 7.452 | -2.835 and -17.59 |
| 32 | `CN(Cc1ncc(-c2ccccc2C(=O)O)s1)c1ncccn1` | -17.3 and -21.08 | 11.74 |
| 33 | `CC(C)(C)c1c[nH]c([C@@H]2COCCN2C2CCC2)n1` | -3.513 | -3.971 and 6.026 |
| 34 | `CC(C)c1nc(CNc2nccc(CCC(F)(F)F)n2)cs1` | 36.85 | 16.41 |
| 35 | `CCOC(=O)CNC(=O)N1CCOC(Cc2ccc(OC)cc2)C1` (stereo not shown) | 21.17 | 23.98 |
| 36 | `Cc1csc(CNC(=O)NC(C)c2ccc3c(c2)OCCO3)n1` (stereo not shown) | -28.64 | -13.73 |
| 37 | `COC(=O)CCCN(C)C(c1cccnc1)c1ccc(F)cc1F` (stereo not shown) | -12.23 and -2.692 | -15.71 |
| 38 | `O=S(=O)(Nc1cnc(N2CCCC2)nc1)c1ccc(C(F)(F)F)cc1` | -2.544 | -25.47 |
| 39 | `CCCNC(=O)CCNC(=O)Cc1nc(-c2ccco2)oc1C` | -4.339 | -8.619 |
| 40 | `Cc1cc(C)n(CC2CCCN2C(=O)c2ccc3[nH]nnc3c2)n1` (stereo not shown) | 11.11 | 3.702 and -2.568 |
| 41 | `Cc1nc(CCN)cc(N(C)Cc2nc3ccc(F)cc3[nH]2)n1` | -4.238 | -2.877 |
| 42 | `Cc1ccc(F)c(S(=O)(=O)NCCc2nnc[nH]2)c1` | -9.842 and 2.315 | 22.26 |
| 43 | `CN(Cc1ccc2nsnc2c1)CC1(O)CCNC1` (stereo not shown) | -4.498 | -19.52 |
| 44 | `NC(=O)c1cc2c(nc1CC1CCCCO1)CCC2` (stereo not shown) | -13.09 | 3.737 and -15 |
| 45 | `CC1(C)CCN1C(=O)c1cc(F)cc2[nH]cnc12` | -3.543 | 24.06 |
| 46 | `CN(CC(N)=O)C(=O)c1cc(Cl)c(Cl)n1C` | -4.909 | -5.289 |
| 47 | `NC(=O)c1cccc(CNC(=O)NCCOc2ccc(F)c(F)c2)c1` | 15.63 | 5.845 and 33.81 |
| 48 | `CNC(=O)C1CN(c2ccnc(C)n2)CCN1Cc1ccccc1` (stereo not shown) | 8.862 | 7.77 |
| 49 | `CCN(CC)CC[C@H]1CN(C(=O)C(C)(C)C)CC[C@H]1CC(=O)O` | 7.391 | 2.605 and 47.83 |
| 50 | `O=C(O)C(F)(F)F.O=C(c1cccs1)N1CCOCC2(C1)CN(c1cccnc1)C(=O)CO2` (stereo not shown) | -12.41 | 20.49 |
| 51 | `CC(=O)N1CCN(C(=O)NC(C)C)CC2(CNC(=O)C2)C1` (stereo not shown) | -15.26 | -3.59 |
| 52 | `CC(=O)c1cc(CC(=O)NCc2ccc(CN(C)C)cc2)cs1` | 19.22 | 0.02125 |
| 53 | `Cc1ccc(-c2cc(N)c(=O)n(CC(=O)NC3CCCCC3)n2)s1` | 7.171 | 6.955 |
| 54 | `Cn1ccnc1CN1CCN(Cc2noc(-c3ccccc3)n2)CC1` | -7.517 | 1.556 |
| 55 | `c1ccc2c(Cc3nnc([C@H]4CCN(C5CCC5)C4)o3)c[nH]c2c1` | -23.17 | -19.63 and -4.357 |
| 56 | `Cc1cccc(C(=O)Oc2cc(=O)n3cccc(C)c3n2)c1` | -10.18 | 3.618 |
| 57 | `Cc1n[nH]cc1CNC(C(=O)N1CCCCC1)c1ccccc1` (stereo not shown) | -7.926 | -2.307 and -12.04 |
| 58 | `COCCN1CCn2cc(CN(C)Cc3ccco3)nc2C1` | -28.43 and -8.86 | -9.715 |
| 59 | `Cc1nc(C)n(CC2CCCCN2c2ccnc(-c3ccccc3)n2)n1` (stereo not shown) | -45.36 | -6.175 |
| 60 | `CCC(C)Nc1ccc(-c2nc(-c3cccc(OC)c3OC)no2)cn1` (stereo not shown) | 13.38 and -7.92 | -15.7 |
| 61 | `CCN1CCCC(c2c(-c3ccccc3)ncn2Cc2csc(N)n2)C1` (stereo not shown) | -18.13 | -5.915 |
| 62 | `Cc1cccc2c(=O)n(C(C)Cc3cccnc3)cnc12` (stereo not shown) | -4.607 | 0.8215 |
| 63 | `O=C(O)COCC(=O)NC1CC2(CCCCC2)Oc2ccccc21` (stereo not shown) | -35.61 | -2.136 |
| 64 | `O=C(O)C(F)(F)F.O=C(O)C(F)(F)F.O=C(O)C(F)(F)F.[H][C@]12C[C@H](C(=O)N3CCN(C)CC3)N(C)[C@@]1([H])CN(c1ncc(F)cn1)C2` | -14.23 | -18.41 |
| 65 | `CC(C)C1CN(S(=O)(=O)C2CC2)CCCN1Cc1ccc(F)cc1` (stereo not shown) | 0.8458 | 22.2 and 23.65 |
| 66 | `CCc1ncc2c(n1)CN(Cc1nnc(Cc3ccccc3)o1)CC2` | 14.33 | 7.209 |
| 67 | `O=C(O)CCC(=O)N1CCC(c2noc3cc(F)ccc23)CC1` | -5.455 | 8.124 |
| 68 | `CC(C)C(C)(C#N)NC(=O)Cn1cc(Cl)cn1` (stereo not shown) | 24.28 and -0.9355 | 22.83 |
| 69 | `O=C(Nc1ccc2c(c1)OCO2)c1ccc(N2CCCC2)nn1` | -38.87 | -60.77 |
| 70 | `Cc1cccc(CN2CCC3(CCCN(C(=O)N(C)C)C3)C2=O)n1.O=C(O)C(F)(F)F` (stereo not shown) | 18.11 and -19.55 | 19.05 and -5.472 |
| 71 | `[H][C@@]12COC[C@]1(CNS(C)(=O)=O)CN(C(=O)C1CC(F)(F)C1)C2` | -21.6 | -15.61 |
| 72 | `O=C(CCO)N1CCOC2(CCCN(C(=O)c3ccco3)C2)C1` (stereo not shown) | -1.156 | 8.629 |
| 73 | `CCCN1Cc2ccccc2CC1C(=O)NC` (stereo not shown) | -13.88 | 17.02 |
| 74 | `O=c1[nH]c(-c2cccnc2)nc2c1CCN(S(=O)(=O)N1CCCC1)C2` | -1.486 | -5.302 and -11.04 |
| 75 | `c1cnn(CCC2CCCCN2Cc2cnc(C3CCCCC3)nc2)c1` (stereo not shown) | -5.662 | 8.974 |
| 76 | `OCCC1CCN(c2ccnc3ccsc23)C1` (stereo not shown) | -17.98 | 18.56 |
| 77 | `Cc1ccc(CC(=O)N2CCc3nnc(N(C)C)cc3C2)s1` | -9.892 | -8.007 |
| 78 | `Cc1ccc(NC2CCN(C(=O)c3cc4c(s3)CCC4)CC2)nn1` | 15.46 | 6.616 |

Repeated from the top, 8 entries:

Compound,Mtb cholesterol medium,Mtb glucose medium
Cc1cc(C(=O)NCc2ccc(F)cc2)c2c(C3CCCN3)noc2n1 (stereo not shown),-15.41,16
COC(=O)N1CCCC(NC(=O)NCc2ccc(C)nc2)C1 (stereo not shown),-8.134,1.686
CN(Cc1nnc(C2CC2)n1C)C1CCN(Cc2ccccc2F)C1 (stereo not shown),-15.85,-13.12
CN(CCOc1ccc(F)cc1)S(=O)(=O)N1CCOCC1,0.9549,-6.711 and -2.848
O=C(Nc1ccc(-n2cccn2)cc1)N1CCOCC(O)C1 (stereo not shown),-10.97,-1.805
O=C(O)C(F)(F)F.[H][C@@]12CO[C@H](CNS(C)(=O)=O)[C@]1([H])CCN(Cc1ccsc1)C2,5.415,-3.517
CCc1ncc(CN(C)C2CCN(C(C)C)CC2)cn1.O=C(O)CC(O)(CC(=O)O)C(=O)O,-3.957,-8.711
Cc1n[nH]c(C)c1NC(=O)CN1CCN(c2nccs2)C(C)C1 (stereo not shown),17.04,-4.86 and 40.66

Measurements from “University of Dundee, Small-Polar-MMV Screening Library” (2021), ChEMBL document CHEMBL3988442.